Measurements reported in patent US20120045437A1 (BOARD OF REGENTS OF THE UNIVERSITY OF OKLAHOMA, published 2012).

Biological target: endogenous bovine LRP6 (bovine)
Experiment: Western blot, total cell lysates

binding: binds
B1: Anti-LRP6-1 (antibody, mouse IgG2, V domains shown)
VH: EVQLVESGGGLVQSKGSLKLSCAASGFTFNTYAMNWVRQAPGKGLEWVGRIRSKYNNYVTYYGDSVKDRFTISRDDSQSMLYLQMNNLKTEDTAMYYCVRQGRGSYAMDYWGQGTSVTVSS
VL: NIVMTQSPKSMSMSVGERVTLSCKASENVGTYVSWYQQKPEQSPKLLIYGASNRYTGVPDRFIGSGSATDFTLTIRSVQAEDLADYHCGQSYSYPTFGAGTKLELKR
notes: also called mAb2F1; 2F1

Results are given in words; binding and its absence hold for the method and conditions named. Binding calls can cover weak binding; strength is not graded here.
